Data on one compound can be found in PubChem BioAssay AID248 (DTP/NCI, 2004).

This experiment relates to L1210 leukemia ip in BDF1 mice, survival T/C. The experiment is described as follows: NCI In Vivo Anticancer Drug Screen. Data for tumor model L1210 Leukemia (intraperitoneal) in B6D2F1 (BDF1) mice. Particulars: T/C endpoint: mean survival time, schedule: Q01DX009 (ip), vehicle: Klucel (hydroxypropylcellulose) (HPC), higher T/C = longer survival.

The list does not hold the whole screen: it is rich in T/C values a quarter to a half above the control, in often repeated tests (any T/C) and in doses without a T/C. Other doses and runs of a compound stand elsewhere. T/C: endpoint of the treated group in % of that of the vehicle group. Some doses have a count of surviving animals in place of a T/C: the source holds a T/C of zero for them, seemingly a mark for toxic or unscored doses. Survivors were counted at the toxicity check, usually on the fifth day, unless a day is given; later deaths do not show. Schedule codes are those of the source, read here as Q, the interval in days (D) or hours (H), X, the number of doses.

Take `CCCCN(C(=O)CCl)C(C)(C)C(SSC(c1ccc(Cl)cc1)C(C)(C)N(CCCC)C(=O)CCl)c1ccc(Cl)cc1` (stereo not drawn): the survivor count is recorded as 1 of 6 (dose: 100.0 mg/kg/injection), 0 of 6 (dose: 200.0 mg/kg/injection) and 0 of 6 (dose: 400.0 mg/kg/injection).
